The test addresses Rv2744c as bacterial two-hybrid fusion (pTZ1185: pKT25 containing Rv2744c; pTZ1182: pUT18 containing Rv2744c) (Mycobacterium tuberculosis) (UniProt P9WHP5). Kind of test: two-hybrid.

By UniProt entry, the sequences of proteins in these tests, tags left out.
UniProt P9WHP5: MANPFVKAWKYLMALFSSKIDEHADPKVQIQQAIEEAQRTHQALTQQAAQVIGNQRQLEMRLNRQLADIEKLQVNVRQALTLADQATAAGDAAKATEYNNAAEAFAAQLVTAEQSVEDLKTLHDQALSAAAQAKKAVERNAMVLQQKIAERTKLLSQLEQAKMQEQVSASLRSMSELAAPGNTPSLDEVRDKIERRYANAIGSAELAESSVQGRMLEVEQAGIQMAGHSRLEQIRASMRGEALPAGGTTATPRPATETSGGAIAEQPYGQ

These are yes or no findings as the source states them, for the method shown. Some binding calls cover weakened binding; strength is not graded here.

As for “Rv2744c as bacterial two-hybrid fusion (pTZ1185: pKT25 containing Rv2744c; pTZ1182: pUT18 containing Rv2744c) (from UniProt P9WHP5 1-270)”, the binding result is reported as “binds”.

(Values after paper PMC3062566.)
